We go through 18 compounds from PubChem BioAssay AID248 (DTP/NCI, 2004).

The list does not hold the whole screen: it gathers tests that were run many times, whatever their T/C, doses with no T/C, and many T/C values between a quarter and a half above the control. Other doses and runs of a compound stand elsewhere. T/C: endpoint of the treated group in % of that of the vehicle group. Some doses have a count of surviving animals in place of a T/C: the source holds a T/C of zero for them, seemingly a mark for toxic or unscored doses. Some survivor counts are full or nearly so, which does not show that the dose was tolerated: the source hardly ever lists a survival T/C far under the control, and the zero likely stands for such cases as well. Counts of survivors are from the toxicity check (mostly the fifth day) where no day follows; animals may have died later. Schedule codes are those of the source, taken here to give the interval after Q, in days (D) or hours (H), and the number of doses after X. Some schedules carry Z or #; the key to these is not given. Some entries hold several experiments; the results are listed from low to high. Where survival is the endpoint, the PubChem record calls one and a half times the control and up active, and a quarter to a half above the control has no call in these data; cut-offs in other NCI protocols can differ. Some T/C values carry the count of animals alive at the toxicity check (mostly the fifth day); where none is given, no animal had died by that day.

The subject of the test is L1210 leukemia ip in BDF1 mice, survival T/C. Kind of test: NCI In Vivo Anticancer Drug Screen. Data for tumor model L1210 Leukemia (intraperitoneal) in B6D2F1 (BDF1) mice. The following applies: T/C endpoint: mean survival time, higher T/C = longer survival.
Setting [1] is: dose: 200.0 mg/kg/injection, schedule: Q04DX003 (ip), vehicle: Klucel (hydroxypropylcellulose) (HPC).
Where [2] appears, read: dose: 400.0 mg/kg/injection, schedule: Q01DX001 (ip), vehicle: saline.
Setting [3] is: dose: 400.0 mg/kg/injection, schedule: Q04DX003 (ip), vehicle: Klucel (hydroxypropylcellulose) (HPC).
[4] abbreviates: dose: 200.0 mg/kg/injection, schedule: Q01DX009 (ip), vehicle: saline.
[5] abbreviates: dose: 100.0 mg/kg/injection, schedule: Q04DX003 (ip), vehicle: saline.
Where [6] appears, read: dose: 200.0 mg/kg/injection, schedule: Q04DX003 (ip), vehicle: saline.
[7] abbreviates: dose: 400.0 mg/kg/injection, schedule: Q04DX003 (ip), vehicle: saline.

As for `CC/C(Cc1ccc(O)cc1)=N\N=C(N)N`, the survivor count by setting is: (dose: 120.0 mg/kg/injection, schedule: Q01DX Z (ip), vehicle: methylcellulose (MC)) 3 of 6; (dose: 120.0 mg/kg/injection, schedule: Q01DX Z (oral), vehicle: methylcellulose (MC)) 4 of 6; (dose: 375.0 mg/kg/injection, schedule: Q01DX Z (oral), vehicle: methylcellulose (MC)) 4 of 7; (dose: 500.0 mg/kg/injection, schedule: Q01DX Z (oral), vehicle: methylcellulose (MC)) 5 of 7; (dose: 625.0 mg/kg/injection, schedule: Q01DX Z (oral), vehicle: methylcellulose (MC)) 4 of 7.

For `C=CC(=O)c1c(O)cc(O)c2c1C(C)C(=O)O2` (configuration not stated), the survivor count (dose: 150.0 mg/kg/injection, schedule: Q01DX009 (ip), vehicle: Klucel (hydroxypropylcellulose) (HPC)) is reported as 4 of 6; the survivor count under setting [1] is reported as 3 of 6; the survivor count (dose: 300.0 mg/kg/injection, schedule: Q01DX009 (ip), vehicle: Klucel (hydroxypropylcellulose) (HPC)) was 1 of 6; the survivor count under setting [2] is reported as 1 of 4; the survivor count under setting [3] is 5 of 6.

On to `COB(OC)C1CCCC1`, for which, under “dose: 400.0 mg/kg/injection, schedule: Q01DX001 (ip), vehicle: Klucel (hydroxypropylcellulose) (HPC)”, the survivor count is listed as 0 of 6.

`CCOP(=O)(OCC)ON=C(Cl)Cl`: the survivor count (dose: 6.25 mg/kg/injection, schedule: Q04DX002 (ip), vehicle: saline) was 3 of 3; the survivor count (dose: 10.0 mg/kg/injection, schedule: Q01DX009 (ip), vehicle: Klucel (hydroxypropylcellulose) (HPC)) was 6 of 6; the survivor count (dose: 12.5 mg/kg/injection, schedule: Q04DX002 (ip), vehicle: saline) was 0 of 3 and 3 of 3; the survivor count (dose: 25.0 mg/kg/injection, schedule: Q04DX002 (ip), vehicle: saline) is 1 of 3; the survivor count (dose: 50.0 mg/kg/injection, schedule: Q04DX002 (ip), vehicle: saline) is 0 of 3; the survivor count (dose: 100.0 mg/kg/injection, schedule: Q04DX002 (ip), vehicle: saline) is on record as 0 of 3. Also, the survivor count reads like this: (dose: 200.0 mg/kg/injection, schedule: Q04DX002 (ip), vehicle: saline) 0 of 3; (dose: 400.0 mg/kg/injection, schedule: Q04DX002 (ip), vehicle: saline) 1 of 3.

As for `CS(=O)(=O)OCC(O)C(O)COS(C)(=O)=O` (configuration not stated), the T/C runs as follows: (dose: 50.0 mg/kg/injection, schedule: Q01DX009 (ip), vehicle: saline) 97, 100, 113, 119 % of control; (dose: 100.0 mg/kg/injection, schedule: Q01DX009 (ip), vehicle: saline) 100, 107, 113, 143 % of control; under setting [4], 105, 108, 111, 182 % of control; (dose: 400.0 mg/kg/injection, schedule: Q01DX009 (ip), vehicle: saline) 106, 108, 112, 113 % of control; (dose: 400.0 mg/kg/injection, schedule: Q01DX010 (ip), vehicle: saline) 125 % of control; (dose: 1000.0 mg/kg/injection, schedule: Q01DX Z (ip), vehicle: carboxymethylcellulose (CMC)) 132 % of control.

For the compound `O=C(O)CCCC1CCCCC1.[Cu+2]`, the survivor count is 3 of 6 (dose: 20.0 mg/kg/injection, schedule: Q04DX003 (ip), vehicle: Klucel (hydroxypropylcellulose) (HPC)); 1 of 6 (dose: 40.0 mg/kg/injection, schedule: Q04DX003 (ip), vehicle: Klucel (hydroxypropylcellulose) (HPC)); 0 of 6 (dose: 80.0 mg/kg/injection, schedule: Q04DX003 (ip), vehicle: Klucel (hydroxypropylcellulose) (HPC)); 1 of 6 (dose: 100.0 mg/kg/injection, schedule: Q04DX003 (ip), vehicle: Klucel (hydroxypropylcellulose) (HPC)); 0 of 6 under setting [1]; 0 of 6 under setting [3].

On to `O=Nc1c(N=O)c(N=O)c(N=O)c(N=O)c1N=O`, for which the survivor count runs as follows: (dose: 16.0 mg/kg/injection, schedule: Q01DX015 (ip), vehicle: carboxymethylcellulose (CMC)) 3 of 6; (dose: 32.0 mg/kg/injection, schedule: Q01DX015 (ip), vehicle: carboxymethylcellulose (CMC)) 0 of 6; (dose: 64.0 mg/kg/injection, schedule: Q01DX015 (ip), vehicle: carboxymethylcellulose (CMC)) 0 of 6; under setting [5], 3 of 6; under setting [6], 0 of 6; under setting [7], 1 of 6. Also, the survivor count runs as follows: (dose: 800.0 mg/kg/injection, schedule: Q01DX001 (ip), vehicle: saline) 0 of 4; (dose: 1600.0 mg/kg/injection, schedule: Q01DX001 (ip), vehicle: saline) 0 of 4.

As to `S=P(NCCSCc1ccccc1)(N1CC1)N1CC1`, the T/C was 130 % of control [5 of 6 alive] (dose: 52.0 mg/kg/injection, schedule: Q01DX011 (ip), vehicle: carboxymethylcellulose (CMC)) and 128 % of control (dose: 100.0 mg/kg/injection, schedule: Q01DX015 (ip), vehicle: carboxymethylcellulose (CMC)).

On to `O=C1C(=O)c2c3ccccc3cc3cccc1c23`, for which the survivor count (dose: 200.0 mg/kg/injection, schedule: Q01DX009 (ip), vehicle: saline with Tween-80) is reported as 3 of 3.

For `ClC1(Cl)C2CCCCC21N1CCCCC1` (configuration not stated), the survivor count runs as follows: under setting [4], 0 of 6; under setting [2], 0 of 6.

As for `C=C(C)COC(=O)Nc1cccc(O)c1`, where the note is “dose: 400.0 mg/kg/injection, schedule: Q01DX001 (ip), vehicle: saline + alcohol”, the survivor count is 3 of 6.

Turning to `CCOC(=O)/C(C#N)=C/NN`, the survivor count is recorded as 0 of 4 under setting [5], 0 of 4 under setting [6] and 0 of 4 under setting [7].

Regarding `O=S(NOCCCCONS(=O)c1ccccc1)c1ccccc1` (configuration not stated), the survivor count (dose: 200.0 mg/kg/injection, schedule: Q01DX001 (ip), vehicle: saline with Tween-80) is listed as 3 of 6; the survivor count (dose: 400.0 mg/kg/injection, schedule: Q01DX001 (ip), vehicle: saline with Tween-80) is recorded as 2 of 6; the survivor count (dose: 400.0 mg/kg/injection, schedule: Q04DX002 (ip), vehicle: saline with Tween-80) is 3 of 6.

With `CCC[N+](C)(C)CCCCOCCCC[N+](C)(C)CCC`, the survivor count by setting is: (dose: 25.0 mg/kg/injection, schedule: Q04DX003 (ip), vehicle: saline) 0 of 6; (dose: 50.0 mg/kg/injection, schedule: Q04DX003 (ip), vehicle: saline) 0 of 6; under setting [5], 0 of 6; under setting [6], 0 of 6; under setting [7], 0 of 6.

For `O=C(O)COc1ccc(Cl)c2ccccc12`, the survivor count (dose: 400.0 mg/kg/injection, schedule: Q04DX002 (ip), vehicle: Klucel (hydroxypropylcellulose) (HPC)) is listed as 1 of 3.

Take `CCCCCc1nc2c(c3c1CCCC3)CCCC2`: under “dose: 300.0 mg/kg/injection, schedule: Q01DX001 (ip), vehicle: other”, the survivor count was 0 of 6.

In the case of `Brc1ncc2ccccc2c1Br`, the survivor count under setting [3] was 2 of 6.

On to `CC1=CC(=O)NC1=O`, for which the survivor count is on record as 5 of 6 under setting [5], 1 of 6 under setting [6] and 0 of 6 under setting [7].
